## Screening data, single-dose tests

Sequences of proteins named here, by UniProt entry; tags and fusion partners are left off. Residues count along the entry.
UniProt Q4DA54, 1-478: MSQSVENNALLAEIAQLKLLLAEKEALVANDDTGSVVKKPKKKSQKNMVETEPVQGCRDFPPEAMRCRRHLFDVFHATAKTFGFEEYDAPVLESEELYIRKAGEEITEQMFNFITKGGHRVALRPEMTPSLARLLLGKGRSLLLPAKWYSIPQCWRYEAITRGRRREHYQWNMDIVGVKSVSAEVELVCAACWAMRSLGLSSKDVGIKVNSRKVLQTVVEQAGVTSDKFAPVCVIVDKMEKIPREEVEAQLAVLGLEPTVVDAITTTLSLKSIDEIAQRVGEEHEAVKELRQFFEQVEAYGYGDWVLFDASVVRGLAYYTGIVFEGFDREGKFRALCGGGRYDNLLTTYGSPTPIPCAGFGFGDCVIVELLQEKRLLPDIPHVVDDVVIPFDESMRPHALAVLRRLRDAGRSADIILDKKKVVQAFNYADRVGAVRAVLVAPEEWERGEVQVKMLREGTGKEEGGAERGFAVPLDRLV
UniProt P9WNZ1, whole entry: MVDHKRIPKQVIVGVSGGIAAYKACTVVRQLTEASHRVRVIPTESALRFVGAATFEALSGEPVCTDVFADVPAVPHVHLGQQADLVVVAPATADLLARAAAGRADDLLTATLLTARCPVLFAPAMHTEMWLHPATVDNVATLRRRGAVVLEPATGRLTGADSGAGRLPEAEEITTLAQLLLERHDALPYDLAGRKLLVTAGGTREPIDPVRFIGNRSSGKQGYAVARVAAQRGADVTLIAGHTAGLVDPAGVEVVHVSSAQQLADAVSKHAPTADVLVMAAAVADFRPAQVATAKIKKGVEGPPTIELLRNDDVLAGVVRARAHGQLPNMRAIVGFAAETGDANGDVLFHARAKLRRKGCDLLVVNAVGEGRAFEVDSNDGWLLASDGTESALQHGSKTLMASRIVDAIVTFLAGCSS
UniProt P9WPC5, whole entry: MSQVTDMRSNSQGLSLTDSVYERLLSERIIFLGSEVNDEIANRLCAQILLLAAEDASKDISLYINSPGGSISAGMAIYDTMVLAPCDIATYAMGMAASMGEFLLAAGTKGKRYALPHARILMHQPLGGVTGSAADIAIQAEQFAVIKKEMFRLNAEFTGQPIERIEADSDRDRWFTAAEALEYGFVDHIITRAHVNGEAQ
UniProt P9WPC3, whole entry partner: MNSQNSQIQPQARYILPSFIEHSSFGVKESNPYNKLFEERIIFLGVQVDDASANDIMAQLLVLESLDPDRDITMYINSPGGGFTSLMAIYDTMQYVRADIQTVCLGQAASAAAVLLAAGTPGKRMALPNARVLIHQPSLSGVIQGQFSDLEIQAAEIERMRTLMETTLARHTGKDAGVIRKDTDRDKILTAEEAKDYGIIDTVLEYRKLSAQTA
UniProt Q8IDJ8, 1-583: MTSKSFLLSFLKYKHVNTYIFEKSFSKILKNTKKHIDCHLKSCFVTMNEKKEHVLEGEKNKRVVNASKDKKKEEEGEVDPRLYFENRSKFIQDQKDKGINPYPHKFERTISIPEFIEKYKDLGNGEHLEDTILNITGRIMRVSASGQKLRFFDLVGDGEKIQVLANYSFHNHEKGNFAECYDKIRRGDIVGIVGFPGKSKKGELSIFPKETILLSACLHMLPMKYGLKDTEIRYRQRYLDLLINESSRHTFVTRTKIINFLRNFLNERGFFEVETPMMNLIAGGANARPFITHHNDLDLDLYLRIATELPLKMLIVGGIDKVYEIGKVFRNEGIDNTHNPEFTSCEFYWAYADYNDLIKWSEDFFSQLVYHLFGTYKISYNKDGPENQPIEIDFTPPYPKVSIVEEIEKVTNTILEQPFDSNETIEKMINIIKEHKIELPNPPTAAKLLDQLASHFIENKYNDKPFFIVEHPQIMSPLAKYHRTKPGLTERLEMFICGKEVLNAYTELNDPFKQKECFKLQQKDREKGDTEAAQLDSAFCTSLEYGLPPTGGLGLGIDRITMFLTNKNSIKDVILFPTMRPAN

Data taken from ChEMBL document CHEMBL3988442, “University of Dundee, Small-Polar-MMV Screening Library” (2021).

Leishmania in macrophages: 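Cell assay of Leishmania donovani living inside macrophages; the read-out is not stated. Compounds at 30 µM. The record gives no direction; compounds that gave an IC50 in retests scored well above the rest, so higher reads as stronger inhibition. About 69,000 compounds were tested under these conditions; 1.5% (about 1,000) showed 50% or more at least once.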
TcHisRS: 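Enzyme assay of histidyl-tRNA synthetase; the read-out is not stated. Target: Histidine-tRNA ligase, Trypanosoma cruzi CL Brener (UniProt Q4DA54). Compounds at 30 µM. The record gives no direction; compounds that gave an IC50 in retests scored well above the rest, so higher reads as stronger inhibition. About 69,000 compounds were tested under these conditions; 0.045% (about 31) showed 50% or more at least once.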
CoaBC: 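Coenzyme A biosynthesis protein CoaBC, Mycobacterium tuberculosis (UniProt P9WNZ1). Enzyme assay of CoaBC with a phosphate dye (Biomol Green) read at 650 nm. Compounds at 30 µM. Higher reads as stronger inhibition, judged from the few compounds that gave an IC50. Most strong results did not repeat in a second test. Size under these conditions: about 67,000 compounds, about 40 of them at 50% or above in at least one test.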
ClpP1P2: 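Protease assay of ClpP1P2, read by the AMC dye that it sets free. Target: ClpP1P2, Mycobacterium tuberculosis (UniProt P9WPC5 and UniProt P9WPC3). Concentration: 50 µM. Higher reads as stronger inhibition, judged from the few compounds that gave an IC50. Most other retested compounds had strongly negative values. About 69,000 compounds were tested under these conditions; 0.015% (about 10) showed 50% or more at least once.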
PfKRS1: 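Lysine-tRNA ligase, Plasmodium falciparum 3D7 (UniProt Q8IDJ8). Enzyme assay of the cytosolic lysyl-tRNA synthetase in 384-well plates, read by luminescence. Concentration: 30 µM. Higher reads as stronger inhibition, judged from the few compounds that gave an IC50. About 69,000 compounds were tested under these conditions; 0.071% (about 49) showed 50% or more at least once.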

Each number is a percent effect as filed.
How 0% and 100% were set is not recorded. Most values in the screen are low, and negative values occur.
The compounds are a random part of those screened.

{"structure": "CN(Cc1noc2c1CCCC2)C(=O)Nc1cncc(F)c1", "Leishmania in macrophages": -9.997, "TcHisRS": 9.013, "CoaBC": -4.426, "ClpP1P2": 4.196, "PfKRS1": 2.502}
{"structure": "O=C(Cc1ccc(F)cc1)NCCNCC1CNc2ccnn2C1", "stereo": "centres undefined", "Leishmania in macrophages": -15.07, "TcHisRS": 0, "CoaBC": -37.74, "ClpP1P2": -9.788, "PfKRS1": 1.203}
{"structure": "Cc1cc2nc(SCC(=O)N3CCCC3)n(Cc3ccco3)c(O)c-2n1", "Leishmania in macrophages": -10.14, "TcHisRS": 4.018, "CoaBC": 4.082, "ClpP1P2": -29.64, "PfKRS1": 6.833}
{"structure": "O=C(c1ccccn1)N1CC(S(=O)(=O)c2ccc(Cl)cc2)C1", "Leishmania in macrophages": -5.657, "TcHisRS": -7, "CoaBC": 1.211, "ClpP1P2": -11.98, "PfKRS1": 1.624}
{"structure": "[H][C@@]12CS(=O)(=O)C[C@]1([H])N(Cc1ccc(F)c(C)c1)CCN2CCOC", "Leishmania in macrophages": 19.65}
{"structure": "CN(C)C1CCCN(C(=O)NCCC(=O)N2CCCCCC2)C1", "stereo": "centres undefined", "Leishmania in macrophages": 9.804, "TcHisRS": 4.865, "CoaBC": 2.727, "ClpP1P2": -6.342, "PfKRS1": -0.8404}
{"structure": "COc1ccc(CNC2CCc3ncnn3C2)cc1OCCCC#N", "stereo": "centres undefined", "Leishmania in macrophages": 35.18, "TcHisRS": 8.911, "CoaBC": 2.913, "ClpP1P2": 9.719, "PfKRS1": -1.367}
{"structure": "Cc1nc(CN2CCC3(CCCN(Cc4ccoc4)C3)C2=O)cs1", "stereo": "centres undefined", "TcHisRS": 5.714, "CoaBC": -7.275, "ClpP1P2": -3.052, "PfKRS1": -3.066}
{"structure": "Fc1cccnc1N1CCC2(CNCCC2(F)F)C1", "stereo": "centres undefined", "Leishmania in macrophages": 2.883, "TcHisRS": 6.952, "CoaBC": -7.083, "ClpP1P2": 11.35, "PfKRS1": -3.903}
{"structure": "COc1cc(Br)c(CNC(C)c2nnc3n2CCC3)cc1OC", "stereo": "centres undefined", "Leishmania in macrophages": -5.57, "TcHisRS": -2.299, "CoaBC": 14.8, "ClpP1P2": -1.562, "PfKRS1": -2.066}
{"structure": "Cc1cc(NC2CCN(Cc3ccccn3)CC2)n2nc(C)c(C)c2n1", "Leishmania in macrophages": 27.06, "TcHisRS": 2.703, "CoaBC": 14.09, "ClpP1P2": 8.335, "PfKRS1": 2.172}
{"structure": "Cc1cccc(CN2CC[C@@H]3O[C@@H](C(=O)N4CCN(C)CC4)C[C@@H]32)c1", "TcHisRS": 10.61, "CoaBC": 3.515, "ClpP1P2": 1.903, "PfKRS1": 3.321}
{"structure": "Cc1cnc(CN(C)C2CCN(CC(=O)Nc3nncs3)C2)o1.O=C(O)C(F)(F)F", "stereo": "centres undefined", "Leishmania in macrophages": -11.91}
{"structure": "Cc1noc([C@H]2C[C@@H]3CCN(C(=O)C4CCOCC4)C[C@H]3O2)n1", "TcHisRS": 3.867, "CoaBC": 4.884, "ClpP1P2": -4.89, "PfKRS1": 4.226}

2 of the entries, repeated:

- CN(C)C1CCCN(C(=O)NCCC(=O)N2CCCCCC2)C1 (centres undefined) : Leishmania in macrophages: 9.804%; TcHisRS: 4.865%; CoaBC: 2.727%; ClpP1P2: -6.342%; PfKRS1: -0.8404%
- Cc1cccc(CN2CC[C@@H]3O[C@@H](C(=O)N4CCN(C)CC4)C[C@@H]32)c1 : TcHisRS: 10.61%; CoaBC: 3.515%; ClpP1P2: 1.903%; PfKRS1: 3.321%